# Data taken from article PMC3084506 (Archives of Drug Information, 2011).
# By UniProt entry, the sequences of proteins in these tests, tags left out. Where a name states a change or a piece, a line headed by the entry shows the natural chain unless it says otherwise.
# UniProt P33527: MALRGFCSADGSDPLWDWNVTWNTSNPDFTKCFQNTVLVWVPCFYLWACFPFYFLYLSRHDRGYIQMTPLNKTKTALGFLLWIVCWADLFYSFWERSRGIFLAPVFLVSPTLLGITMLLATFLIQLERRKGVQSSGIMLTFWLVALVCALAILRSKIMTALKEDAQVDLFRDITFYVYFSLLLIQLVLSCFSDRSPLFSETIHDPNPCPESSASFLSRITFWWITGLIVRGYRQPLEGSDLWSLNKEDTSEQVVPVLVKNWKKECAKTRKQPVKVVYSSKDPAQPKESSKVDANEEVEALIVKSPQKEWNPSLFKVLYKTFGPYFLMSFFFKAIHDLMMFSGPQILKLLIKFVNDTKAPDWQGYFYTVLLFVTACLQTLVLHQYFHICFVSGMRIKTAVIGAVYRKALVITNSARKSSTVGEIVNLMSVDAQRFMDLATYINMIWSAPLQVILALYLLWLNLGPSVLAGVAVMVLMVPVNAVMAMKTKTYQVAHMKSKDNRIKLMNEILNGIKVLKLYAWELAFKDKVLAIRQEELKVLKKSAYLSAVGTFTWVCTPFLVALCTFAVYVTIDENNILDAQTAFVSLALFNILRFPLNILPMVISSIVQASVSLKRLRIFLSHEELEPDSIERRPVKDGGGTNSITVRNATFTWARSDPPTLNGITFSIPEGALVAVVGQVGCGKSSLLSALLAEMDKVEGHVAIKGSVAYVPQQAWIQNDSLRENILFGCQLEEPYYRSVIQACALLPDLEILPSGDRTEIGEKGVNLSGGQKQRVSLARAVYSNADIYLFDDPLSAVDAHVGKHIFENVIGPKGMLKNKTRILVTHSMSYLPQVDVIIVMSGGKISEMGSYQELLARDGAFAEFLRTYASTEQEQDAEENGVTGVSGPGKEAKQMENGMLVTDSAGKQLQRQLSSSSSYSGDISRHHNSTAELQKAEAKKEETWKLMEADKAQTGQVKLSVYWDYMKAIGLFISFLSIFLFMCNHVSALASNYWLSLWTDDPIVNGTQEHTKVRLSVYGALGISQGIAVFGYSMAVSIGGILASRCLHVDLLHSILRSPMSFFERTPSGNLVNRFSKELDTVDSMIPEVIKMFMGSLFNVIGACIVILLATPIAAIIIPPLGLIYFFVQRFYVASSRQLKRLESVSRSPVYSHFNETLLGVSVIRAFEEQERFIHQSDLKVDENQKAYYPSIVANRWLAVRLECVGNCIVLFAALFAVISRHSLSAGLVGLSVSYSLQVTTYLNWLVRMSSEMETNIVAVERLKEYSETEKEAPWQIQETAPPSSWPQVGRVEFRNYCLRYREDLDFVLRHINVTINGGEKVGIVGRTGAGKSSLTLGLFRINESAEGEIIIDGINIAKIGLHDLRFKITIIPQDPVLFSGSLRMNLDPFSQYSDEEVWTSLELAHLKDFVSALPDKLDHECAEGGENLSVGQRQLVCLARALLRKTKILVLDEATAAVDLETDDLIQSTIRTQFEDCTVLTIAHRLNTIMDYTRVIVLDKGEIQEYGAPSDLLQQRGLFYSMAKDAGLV
# UniProt P08183, whole entry: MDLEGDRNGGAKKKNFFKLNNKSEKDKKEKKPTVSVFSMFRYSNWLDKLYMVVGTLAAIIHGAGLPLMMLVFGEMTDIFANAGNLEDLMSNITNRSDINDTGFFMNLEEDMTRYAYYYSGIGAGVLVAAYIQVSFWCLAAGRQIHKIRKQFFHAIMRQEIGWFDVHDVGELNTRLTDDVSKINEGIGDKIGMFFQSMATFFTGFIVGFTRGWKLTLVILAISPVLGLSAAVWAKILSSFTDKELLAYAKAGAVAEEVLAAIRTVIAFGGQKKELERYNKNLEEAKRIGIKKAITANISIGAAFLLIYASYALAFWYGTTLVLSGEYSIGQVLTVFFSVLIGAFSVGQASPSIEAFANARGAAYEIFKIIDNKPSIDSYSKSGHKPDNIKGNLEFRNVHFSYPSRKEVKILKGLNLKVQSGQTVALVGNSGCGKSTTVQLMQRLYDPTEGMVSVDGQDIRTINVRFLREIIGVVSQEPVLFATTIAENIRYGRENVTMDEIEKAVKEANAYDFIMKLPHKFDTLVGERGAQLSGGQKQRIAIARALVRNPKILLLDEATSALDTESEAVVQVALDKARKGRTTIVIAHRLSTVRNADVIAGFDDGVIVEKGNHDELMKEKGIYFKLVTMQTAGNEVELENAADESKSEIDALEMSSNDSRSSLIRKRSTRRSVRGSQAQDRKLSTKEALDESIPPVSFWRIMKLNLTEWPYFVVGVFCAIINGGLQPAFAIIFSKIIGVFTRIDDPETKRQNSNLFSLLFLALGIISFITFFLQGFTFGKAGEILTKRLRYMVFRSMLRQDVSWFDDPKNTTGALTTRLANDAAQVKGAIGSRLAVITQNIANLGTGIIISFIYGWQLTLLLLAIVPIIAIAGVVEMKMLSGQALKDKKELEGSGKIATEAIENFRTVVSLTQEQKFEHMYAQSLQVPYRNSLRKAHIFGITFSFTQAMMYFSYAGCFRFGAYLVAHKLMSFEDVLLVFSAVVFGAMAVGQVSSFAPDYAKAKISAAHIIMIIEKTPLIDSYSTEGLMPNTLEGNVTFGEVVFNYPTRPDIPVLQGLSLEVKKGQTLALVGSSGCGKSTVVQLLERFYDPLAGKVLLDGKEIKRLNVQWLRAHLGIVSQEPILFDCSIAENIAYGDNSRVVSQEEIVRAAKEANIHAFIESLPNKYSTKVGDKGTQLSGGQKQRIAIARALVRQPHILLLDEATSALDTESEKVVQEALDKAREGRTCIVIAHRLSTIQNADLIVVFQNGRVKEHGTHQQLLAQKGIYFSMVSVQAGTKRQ
# UniProt Q92887: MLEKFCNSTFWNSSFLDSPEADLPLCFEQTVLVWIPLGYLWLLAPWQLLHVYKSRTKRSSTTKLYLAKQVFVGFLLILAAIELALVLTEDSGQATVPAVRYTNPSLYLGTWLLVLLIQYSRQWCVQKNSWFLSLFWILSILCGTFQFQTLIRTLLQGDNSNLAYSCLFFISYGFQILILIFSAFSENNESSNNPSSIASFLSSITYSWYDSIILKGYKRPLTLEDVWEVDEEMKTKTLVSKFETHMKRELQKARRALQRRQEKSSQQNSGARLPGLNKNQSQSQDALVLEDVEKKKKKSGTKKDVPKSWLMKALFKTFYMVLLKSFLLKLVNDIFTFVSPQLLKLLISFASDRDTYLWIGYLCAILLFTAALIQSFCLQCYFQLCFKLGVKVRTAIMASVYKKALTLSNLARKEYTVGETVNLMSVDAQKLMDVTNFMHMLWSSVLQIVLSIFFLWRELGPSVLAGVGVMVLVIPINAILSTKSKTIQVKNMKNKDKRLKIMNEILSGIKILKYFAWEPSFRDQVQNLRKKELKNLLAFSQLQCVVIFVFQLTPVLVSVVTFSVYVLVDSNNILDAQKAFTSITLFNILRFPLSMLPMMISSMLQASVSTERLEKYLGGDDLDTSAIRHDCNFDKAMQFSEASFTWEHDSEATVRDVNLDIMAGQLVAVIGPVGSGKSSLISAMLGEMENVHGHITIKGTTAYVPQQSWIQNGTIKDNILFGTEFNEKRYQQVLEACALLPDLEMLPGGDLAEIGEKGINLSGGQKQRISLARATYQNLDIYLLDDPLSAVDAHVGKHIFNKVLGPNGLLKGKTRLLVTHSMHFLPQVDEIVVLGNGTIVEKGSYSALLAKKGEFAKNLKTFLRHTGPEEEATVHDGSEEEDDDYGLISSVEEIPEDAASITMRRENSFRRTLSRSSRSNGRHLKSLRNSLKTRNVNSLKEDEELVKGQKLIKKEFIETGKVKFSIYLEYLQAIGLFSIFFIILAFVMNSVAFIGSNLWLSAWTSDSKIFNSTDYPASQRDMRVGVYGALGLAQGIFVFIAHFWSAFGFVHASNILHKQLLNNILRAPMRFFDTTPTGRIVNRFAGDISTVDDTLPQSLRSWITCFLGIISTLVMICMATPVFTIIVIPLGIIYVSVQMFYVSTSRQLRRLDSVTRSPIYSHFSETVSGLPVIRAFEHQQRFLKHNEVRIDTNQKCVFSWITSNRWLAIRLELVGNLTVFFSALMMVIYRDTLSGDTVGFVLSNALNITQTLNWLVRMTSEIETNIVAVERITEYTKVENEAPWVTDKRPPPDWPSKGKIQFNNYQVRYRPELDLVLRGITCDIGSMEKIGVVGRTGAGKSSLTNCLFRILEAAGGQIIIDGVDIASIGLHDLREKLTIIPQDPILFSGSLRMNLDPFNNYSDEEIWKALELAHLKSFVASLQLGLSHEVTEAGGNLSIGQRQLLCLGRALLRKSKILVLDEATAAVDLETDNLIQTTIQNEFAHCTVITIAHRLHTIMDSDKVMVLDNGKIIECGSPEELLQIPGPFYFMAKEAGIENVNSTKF
# How the values were obtained:
# in vitro [1] = settings: dog, MDCK
# MRP1 = MRP1 (Homo sapiens, UniProt P33527); experiment: Bidirectional transport study in L-MRP1 cells; format: in vitro ADME; settings: LLC-PK1
# OAT3 = settings: cited from earlier work
# P-gp (L-MDR1 cells) = P-gp (L-MDR1 cells) (Homo sapiens, UniProt P08183); settings: rhodamine-123, a known P-gp substrate; cited from earlier work
# [2] = Bidirectional transport study in MDCKI cells; format: in vitro ADME, canine; settings: dog, MDCK, avg ± SD, n = 3; for Papp A→B at 25 µM / Papp B→A at 25 µM: 25 µM ciprofloxacin
# in vitro [3] = settings: not told
# P-gp (MDR1) [4] = molecular target: T1, P-gp (MDR1) (Homo sapiens, UniProt P08183); experiment: in vitro; settings: dog, MDCK-MDR1
# MRP2 = MRP2 (Homo sapiens, UniProt Q92887); experiment: in vitro; settings: dog
# P-gp (MDR1) [5] = molecular target: T1, P-gp (MDR1); experiment: Bidirectional transport study in L-MDR1 cells; format: in vitro ADME; settings: LLC-PK1
# [6] = cited from earlier work
# [7] = Bidirectional transport study in LLC-PK1 cells; format: in vitro ADME; settings: pig
smiles,measurement,setting,value
O=C(O)c1cn(C2CC2)c2cc(N3CCNCC3)c(F)cc2c1=O [ciprofloxacin],Papp A→B at 25 µM,in vitro [1],1.56 ×10⁻⁶ cm/s
same,Papp B→A at 25 µM,in vitro [1],1.76 ×10⁻⁶ cm/s
same,Papp A→B at 25 µM,MRP1,1.96 ×10⁻⁶ cm/s
same,Papp B→A at 25 µM,MRP1,1.75 ×10⁻⁶ cm/s
same,interaction with OAT3,OAT3,substrate of OAT3
same,inhibition of the transport of rhodamine-123,P-gp (L-MDR1 cells),significantly inhibit
same,Papp A→B at 25 µM,"[2]; Papp × 10^−7 A→B, MDCKI 4°C",0.17 ×10⁻⁶ cm/s
same,Papp A→B at 25 µM,"[2]; Papp × 10^−7 A→B, MDCKI",1.06 ×10⁻⁶ cm/s
same,Papp A→B at 100 µM,"[2]; Papp × 10^−7 A→B, MDCKI, 100 µM ciprofloxacin",0.92 ×10⁻⁶ cm/s
same,Papp B→A at 25 µM,"[2]; Papp × 10^−7 B→A, MDCKI 4°C",0.21 ×10⁻⁶ cm/s
same,Papp B→A at 25 µM,"[2]; Papp × 10^−7 B→A, MDCKI",0.45 ×10⁻⁶ cm/s
same,Papp B→A at 100 µM,"[2]; Papp × 10^−7 B→A, MDCKI, 100 µM ciprofloxacin",0.38 ×10⁻⁶ cm/s
same,Papp A→B at 25 µM,in vitro [3],15.4 ×10⁻⁶ cm/s
same,Papp B→A at 25 µM,in vitro [3],12.8 ×10⁻⁶ cm/s
same,Papp A→B at 25 µM,P-gp (MDR1) [4],0.75 ×10⁻⁶ cm/s
same,Papp B→A at 25 µM,P-gp (MDR1) [4],0.68 ×10⁻⁶ cm/s
same,Papp A→B at 25 µM,MRP2,1.13 ×10⁻⁶ cm/s
same,Papp B→A at 25 µM,MRP2,1.5 ×10⁻⁶ cm/s
same,Papp A→B at 25 µM,P-gp (MDR1) [5],1.28 ×10⁻⁶ cm/s
same,Papp B→A at 25 µM,P-gp (MDR1) [5],2.26 ×10⁻⁶ cm/s
same,part of elimination due to biliary excretion,[6],< 1%
same,Papp A→B at 25 µM,[7],1.8 ×10⁻⁶ cm/s
same,Papp B→A at 25 µM,[7],2.3 ×10⁻⁶ cm/s
